Measured values: the supplement of paper PMC10849652
The list shows a part of the results. Residues, ends and D or L forms follow the SMILES beside them. *: point of attachment. Cbz = O=C(OCc1ccccc1)*

By UniProt entry, the sequences of proteins in these tests, tags left out. Where a name states a change or a piece, a line headed by the entry shows the natural chain unless it says otherwise.
UniProt Q8NB49: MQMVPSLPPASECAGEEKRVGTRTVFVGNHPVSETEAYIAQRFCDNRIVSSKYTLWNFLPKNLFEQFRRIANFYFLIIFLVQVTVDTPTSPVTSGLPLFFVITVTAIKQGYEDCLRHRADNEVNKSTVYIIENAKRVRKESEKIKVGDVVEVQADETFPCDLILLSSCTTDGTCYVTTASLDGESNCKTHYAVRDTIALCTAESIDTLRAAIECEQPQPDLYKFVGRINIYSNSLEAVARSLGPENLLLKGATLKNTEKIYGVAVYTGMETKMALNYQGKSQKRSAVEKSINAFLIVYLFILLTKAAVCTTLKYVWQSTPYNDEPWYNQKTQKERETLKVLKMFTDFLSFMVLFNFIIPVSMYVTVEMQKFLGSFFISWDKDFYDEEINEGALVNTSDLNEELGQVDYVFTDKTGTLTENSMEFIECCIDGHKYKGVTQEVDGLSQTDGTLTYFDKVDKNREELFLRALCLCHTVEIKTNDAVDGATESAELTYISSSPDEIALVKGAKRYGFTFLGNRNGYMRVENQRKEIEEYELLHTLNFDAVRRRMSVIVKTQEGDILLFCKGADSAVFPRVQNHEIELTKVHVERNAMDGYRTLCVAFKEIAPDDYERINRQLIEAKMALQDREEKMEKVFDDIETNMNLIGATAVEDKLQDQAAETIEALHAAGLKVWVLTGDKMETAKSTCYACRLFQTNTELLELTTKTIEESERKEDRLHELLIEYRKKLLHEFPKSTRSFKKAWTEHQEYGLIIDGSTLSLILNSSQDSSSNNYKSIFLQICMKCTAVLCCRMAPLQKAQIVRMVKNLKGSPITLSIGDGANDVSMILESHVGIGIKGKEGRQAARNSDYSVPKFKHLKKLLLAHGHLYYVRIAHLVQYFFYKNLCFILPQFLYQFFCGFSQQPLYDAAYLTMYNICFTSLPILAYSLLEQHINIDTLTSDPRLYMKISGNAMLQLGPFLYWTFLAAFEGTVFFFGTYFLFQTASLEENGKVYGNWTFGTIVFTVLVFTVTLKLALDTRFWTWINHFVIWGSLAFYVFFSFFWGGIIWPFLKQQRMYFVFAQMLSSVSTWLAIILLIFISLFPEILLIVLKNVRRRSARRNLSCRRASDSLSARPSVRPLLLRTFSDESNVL
UniProt Q9ULH1: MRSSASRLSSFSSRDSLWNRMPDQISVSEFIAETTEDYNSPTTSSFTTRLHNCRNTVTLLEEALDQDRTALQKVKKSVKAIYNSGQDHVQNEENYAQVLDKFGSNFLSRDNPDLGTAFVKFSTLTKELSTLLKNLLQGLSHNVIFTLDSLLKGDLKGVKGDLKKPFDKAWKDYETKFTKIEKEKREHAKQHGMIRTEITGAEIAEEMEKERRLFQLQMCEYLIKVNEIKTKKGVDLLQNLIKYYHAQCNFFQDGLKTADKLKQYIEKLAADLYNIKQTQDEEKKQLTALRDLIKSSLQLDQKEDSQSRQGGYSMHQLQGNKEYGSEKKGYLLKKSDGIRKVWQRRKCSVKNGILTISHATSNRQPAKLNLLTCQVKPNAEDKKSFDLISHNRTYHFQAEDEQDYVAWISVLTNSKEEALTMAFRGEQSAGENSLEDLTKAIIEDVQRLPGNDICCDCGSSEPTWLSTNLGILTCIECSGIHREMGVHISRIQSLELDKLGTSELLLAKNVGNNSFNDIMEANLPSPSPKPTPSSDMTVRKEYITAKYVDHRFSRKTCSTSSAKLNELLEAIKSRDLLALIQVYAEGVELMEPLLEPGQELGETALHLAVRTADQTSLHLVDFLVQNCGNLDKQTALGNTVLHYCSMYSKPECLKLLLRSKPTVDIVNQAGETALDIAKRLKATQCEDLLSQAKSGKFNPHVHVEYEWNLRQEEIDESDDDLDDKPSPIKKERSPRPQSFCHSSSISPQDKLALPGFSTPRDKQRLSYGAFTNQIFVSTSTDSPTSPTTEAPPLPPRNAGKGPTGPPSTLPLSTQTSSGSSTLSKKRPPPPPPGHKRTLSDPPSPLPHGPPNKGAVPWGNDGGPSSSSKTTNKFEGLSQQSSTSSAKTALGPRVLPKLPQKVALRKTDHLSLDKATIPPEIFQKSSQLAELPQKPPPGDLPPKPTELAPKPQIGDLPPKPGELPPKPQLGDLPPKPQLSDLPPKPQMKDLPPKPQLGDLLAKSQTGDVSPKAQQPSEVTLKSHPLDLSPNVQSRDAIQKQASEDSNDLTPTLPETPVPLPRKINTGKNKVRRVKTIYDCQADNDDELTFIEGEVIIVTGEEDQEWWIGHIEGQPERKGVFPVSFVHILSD
UniProt P38606, whole entry, looked up: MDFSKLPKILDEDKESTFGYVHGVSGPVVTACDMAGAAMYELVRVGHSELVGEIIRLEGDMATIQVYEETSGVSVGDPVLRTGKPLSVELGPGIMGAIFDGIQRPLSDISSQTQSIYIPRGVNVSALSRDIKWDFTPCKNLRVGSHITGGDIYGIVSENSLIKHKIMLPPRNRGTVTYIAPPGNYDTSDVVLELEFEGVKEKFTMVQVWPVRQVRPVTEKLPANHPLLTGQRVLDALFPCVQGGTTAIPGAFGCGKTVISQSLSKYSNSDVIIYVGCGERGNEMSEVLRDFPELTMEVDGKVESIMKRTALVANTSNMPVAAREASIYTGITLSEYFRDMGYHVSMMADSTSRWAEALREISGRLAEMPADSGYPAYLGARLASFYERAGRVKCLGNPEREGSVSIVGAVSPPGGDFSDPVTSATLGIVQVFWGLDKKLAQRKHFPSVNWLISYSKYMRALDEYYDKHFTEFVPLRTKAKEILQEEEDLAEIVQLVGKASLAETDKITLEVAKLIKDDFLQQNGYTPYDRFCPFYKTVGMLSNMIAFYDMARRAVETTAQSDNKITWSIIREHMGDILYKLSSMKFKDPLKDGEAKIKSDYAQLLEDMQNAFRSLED
UniProt Q9NT62, whole entry, looked up: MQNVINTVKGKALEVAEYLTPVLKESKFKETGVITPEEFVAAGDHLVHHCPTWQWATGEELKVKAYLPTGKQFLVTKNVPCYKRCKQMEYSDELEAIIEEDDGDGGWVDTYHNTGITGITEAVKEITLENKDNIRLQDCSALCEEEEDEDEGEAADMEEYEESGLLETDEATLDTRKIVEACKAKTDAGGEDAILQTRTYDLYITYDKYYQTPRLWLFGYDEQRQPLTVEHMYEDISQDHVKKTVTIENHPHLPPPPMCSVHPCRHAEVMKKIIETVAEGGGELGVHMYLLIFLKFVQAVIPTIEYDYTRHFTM
UniProt Q9NVT9: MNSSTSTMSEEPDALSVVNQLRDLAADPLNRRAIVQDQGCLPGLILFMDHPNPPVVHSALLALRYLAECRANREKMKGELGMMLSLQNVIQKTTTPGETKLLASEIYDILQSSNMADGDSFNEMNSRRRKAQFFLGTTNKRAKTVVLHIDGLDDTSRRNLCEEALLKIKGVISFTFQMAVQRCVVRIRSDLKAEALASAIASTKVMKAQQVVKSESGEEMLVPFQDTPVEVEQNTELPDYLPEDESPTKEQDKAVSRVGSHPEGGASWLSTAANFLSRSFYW
UniProt P15289: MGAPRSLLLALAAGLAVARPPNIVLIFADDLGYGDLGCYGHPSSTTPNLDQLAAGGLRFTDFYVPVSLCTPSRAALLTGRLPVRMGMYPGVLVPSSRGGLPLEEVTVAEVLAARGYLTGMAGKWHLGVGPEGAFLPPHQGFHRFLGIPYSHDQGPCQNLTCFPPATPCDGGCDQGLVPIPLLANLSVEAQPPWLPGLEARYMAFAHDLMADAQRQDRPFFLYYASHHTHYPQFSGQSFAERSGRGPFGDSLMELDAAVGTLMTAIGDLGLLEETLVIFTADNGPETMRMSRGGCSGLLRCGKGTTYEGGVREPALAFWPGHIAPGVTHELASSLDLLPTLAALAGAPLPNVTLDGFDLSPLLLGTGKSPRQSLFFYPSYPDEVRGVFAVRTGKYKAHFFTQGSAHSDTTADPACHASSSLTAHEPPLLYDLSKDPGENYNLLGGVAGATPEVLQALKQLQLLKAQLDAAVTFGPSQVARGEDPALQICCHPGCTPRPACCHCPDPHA
UniProt P61421, whole entry, looked up: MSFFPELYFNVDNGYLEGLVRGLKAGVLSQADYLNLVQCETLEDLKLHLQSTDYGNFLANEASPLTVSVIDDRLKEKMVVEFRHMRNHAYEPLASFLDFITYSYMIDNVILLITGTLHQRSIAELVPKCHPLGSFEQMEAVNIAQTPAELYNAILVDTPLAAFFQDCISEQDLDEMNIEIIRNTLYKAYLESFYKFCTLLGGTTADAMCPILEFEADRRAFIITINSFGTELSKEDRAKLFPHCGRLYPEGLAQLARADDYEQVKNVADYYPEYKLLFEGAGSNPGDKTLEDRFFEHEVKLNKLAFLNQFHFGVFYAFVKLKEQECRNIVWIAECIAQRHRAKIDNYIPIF
UniProt P56134: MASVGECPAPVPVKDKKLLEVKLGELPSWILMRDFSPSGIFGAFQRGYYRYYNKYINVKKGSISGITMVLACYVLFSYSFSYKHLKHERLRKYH
UniProt P36404: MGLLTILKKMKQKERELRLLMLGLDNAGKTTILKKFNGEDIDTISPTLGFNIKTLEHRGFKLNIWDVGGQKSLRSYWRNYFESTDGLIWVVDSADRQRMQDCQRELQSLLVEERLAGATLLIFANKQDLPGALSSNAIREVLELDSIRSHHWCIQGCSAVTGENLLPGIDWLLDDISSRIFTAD
UniProt Q9H2C2: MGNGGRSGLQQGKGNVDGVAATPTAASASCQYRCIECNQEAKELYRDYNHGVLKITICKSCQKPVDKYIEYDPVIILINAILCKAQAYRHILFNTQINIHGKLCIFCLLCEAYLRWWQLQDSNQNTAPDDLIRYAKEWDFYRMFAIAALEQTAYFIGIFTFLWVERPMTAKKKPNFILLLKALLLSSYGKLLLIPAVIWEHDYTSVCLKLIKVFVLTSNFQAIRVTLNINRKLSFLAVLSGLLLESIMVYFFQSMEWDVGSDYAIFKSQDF
UniProt O75787, whole entry, looked up: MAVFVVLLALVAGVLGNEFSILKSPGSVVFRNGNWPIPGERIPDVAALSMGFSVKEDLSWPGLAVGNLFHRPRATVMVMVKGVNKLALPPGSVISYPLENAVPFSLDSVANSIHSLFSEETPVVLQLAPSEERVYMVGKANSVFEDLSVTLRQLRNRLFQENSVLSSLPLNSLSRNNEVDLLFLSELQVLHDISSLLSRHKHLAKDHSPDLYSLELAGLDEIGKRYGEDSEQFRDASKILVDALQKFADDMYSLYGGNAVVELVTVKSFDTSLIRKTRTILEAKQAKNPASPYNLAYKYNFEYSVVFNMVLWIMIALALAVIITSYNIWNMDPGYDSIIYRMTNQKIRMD
UniProt P04424, whole entry, looked up: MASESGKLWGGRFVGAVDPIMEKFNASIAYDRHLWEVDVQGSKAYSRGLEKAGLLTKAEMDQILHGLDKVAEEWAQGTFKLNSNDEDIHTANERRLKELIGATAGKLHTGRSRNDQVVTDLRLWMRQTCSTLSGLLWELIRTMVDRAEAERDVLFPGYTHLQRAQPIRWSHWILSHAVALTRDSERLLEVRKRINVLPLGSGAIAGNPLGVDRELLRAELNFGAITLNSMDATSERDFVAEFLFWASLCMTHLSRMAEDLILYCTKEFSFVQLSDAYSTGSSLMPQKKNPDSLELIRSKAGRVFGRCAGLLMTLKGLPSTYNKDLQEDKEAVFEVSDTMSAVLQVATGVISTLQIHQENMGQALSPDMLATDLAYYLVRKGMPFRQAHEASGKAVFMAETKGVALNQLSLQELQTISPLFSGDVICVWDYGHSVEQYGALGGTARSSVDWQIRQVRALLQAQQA
UniProt Q6DD88: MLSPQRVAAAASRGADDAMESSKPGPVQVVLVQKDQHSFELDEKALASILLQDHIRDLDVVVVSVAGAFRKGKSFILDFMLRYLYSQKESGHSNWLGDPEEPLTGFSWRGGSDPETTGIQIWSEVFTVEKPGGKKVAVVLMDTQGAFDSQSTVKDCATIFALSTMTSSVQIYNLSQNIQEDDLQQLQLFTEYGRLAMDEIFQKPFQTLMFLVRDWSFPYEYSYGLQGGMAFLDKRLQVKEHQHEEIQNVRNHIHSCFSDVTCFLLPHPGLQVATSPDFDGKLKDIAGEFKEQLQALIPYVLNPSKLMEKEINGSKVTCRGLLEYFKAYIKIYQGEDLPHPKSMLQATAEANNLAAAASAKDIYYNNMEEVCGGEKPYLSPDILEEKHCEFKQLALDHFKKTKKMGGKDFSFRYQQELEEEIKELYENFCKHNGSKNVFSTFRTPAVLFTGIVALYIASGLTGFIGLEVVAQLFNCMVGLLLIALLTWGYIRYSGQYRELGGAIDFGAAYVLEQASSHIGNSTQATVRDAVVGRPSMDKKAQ

Key:
Assay in all cases: log2 fold change, soluble protein after heating vs DMSO (PISA); higher = thermal stabilisation; K562 cells, 10 uM, 30 min; active = over 0.2 and 3.5 SD of the protein, either way, in both replicates (recomputed)
[1] = compound: C1COCCN1CCN2C3=CC=CC=C3N=C2NC(=O)C4=CC(=CC=C4)[N+](=O)[O-] [IRAK-1-4 Inhibitor I]
Method in brief: (§1)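 K562 cells (2×10^6 cells/mL) were treated with 10 μM compound for 30 min, and aliquots were heated for 3 min over 48°C-58°C. Pooled aliquots were extracted in PBS with 0.5% NP-40 at 4°C, and the supernatant after 21,000xg for 90 min was measured by TMTpro 16plex LC-MS/MS with channel sums equalised. Reported thermal stability, relative to control samples and from duplicates, is a log2 fold change.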

[2] = compound: C=CC(=O)N1CCC[C@@H](n2nc(-c3ccc(Oc4ccccc4)cc3)c3c(N)ncnc32)C1 [ibrutinib]
Method in brief: as §1

[3] = compound: CC(=O)c1cnc2ccc(-c3cc(Cl)c(O)c(Cl)c3)nc2c1N[C@H]1CC[C@H](CN(C)C)CC1
Method in brief: as §1

[4] = compound: CC(C)(C)Cn1c(N)nc2ccc(-c3[nH]c(C(C)(C)C)nc3-c3ccc(F)cc3)nc21 [ralimetinib]
Method in brief: as §1

[5] = compound: CC(C)(O)CC(=O)NCCn1ccc2ncnc(Nc3ccc(Oc4cccc(C(F)(F)F)c4)c(Cl)c3)c21
Method in brief: as §1

[6] = compound: CC(C)C1=C2N=C(C=C(N2N=C1)NCC3=CC=CC=C3)NCCCCCCN
Method in brief: as §1

[7] = compound: CC(C)C[C@@H](C=O)NC(=O)[C@H](CC(C)C)NC(=O)[C@H](CC(C)C)NC(=O)OCc1ccccc1
Method in brief: as §1

[8] = compound: CC(C)N(C[C@H]1O[C@@H](n2cnc3c(N)ncnc32)[C@H](O)[C@@H]1O)[C@H]1C[C@@H](CCc2nc3cc(C(C)(C)C)ccc3[nH]2)C1 [pinometostat]
Method in brief: as §1

[9] = compound: CC1=C(C(CC(=O)N1)C2=CC=C(C=C2)C(F)(F)F)C(=O)NC3=C(C=C4C(=C3)C=NN4)F
Method in brief: as §1

[10] = compound: CC1=C(C2=C(C=C1)C(=O)C3=CC=CC=C3N2CCCN)C
Method in brief: as §1

[11] = compound: CC1=C(C=C(C=C1)NC(=O)C2=CC(=CC=C2)C(C)(C)C#N)NC3=CC4=C(C=C3)N=CN(C4=O)C
Method in brief: as §1

[12] = compound: CC1=C(C=C(C=C1)NC(=O)C2=CC(=CC=C2)N(C)C)NC(=O)C3=CC=C(C=C3)O
Method in brief: as §1

[13] = compound: CC1=CC=C(C=C1)SC2=C3C=C(SC3=CN=C2)C(=O)N
Method in brief: as §1

[14] = compound: CC1=NC(=CC=C1)C2=C(N=C(N2)C(C)(C)C)C3=CC4=NC=CN=C4C=C3
Method in brief: as §1

[15] = compound: CCCCN(Cc1ccc(C(=O)NO)cc1)C(=O)Nc1ccccc1 [Nexturastat A]
Method in brief: as §1

[16] = compound: CCCS(=O)(=O)Nc1ccc(F)c(C(=O)c2c[nH]c3ncc(-c4ccc(Cl)cc4)cc23)c1F [vemurafenib]
Method in brief: as §1

[17] = compound: CCCS(=O)(=O)Nc1ccc(F)c(C(=O)c2c[nH]c3ncc(Cl)cc23)c1F
Method in brief: as §1

[18] = compound: CCCc1cc(C)[nH]c(=O)c1CNC(=O)c1cc(-c2ccnc(N3CCN(C)CC3)c2)cc2c1cnn2C(C)C
Method in brief: as §1

[19] = compound: CCN(CC)Cc1ccc2cc(COC(=O)Nc3ccc(C(=O)NO)cc3)ccc2c1 [givinostat]
Method in brief: as §1

[20] = compound: CCN(CCCOc1ccc2c(Nc3cc(CC(=O)Nc4cccc(F)c4)[nH]n3)ncnc2c1)CCOP(=O)(O)O [barasertib]
Method in brief: as §1

Measured: log2 fold change

ATP11C (UniProt Q8NB49)
inactive: [1] 0.023 | [2] 0.07 | [3] -0.034 | [4] -0.015 | [5] -0.038 | [6] -0.028 | [7] 0.005 | [8] 0.013 | [9] -0.01 | [10] 0.041 | [11] -0.017 | [12] -0.014 | [13] 0.037 | [14] 0.021 | [15] 0.017 | [16] -0.03 | [17] -0.028 | [18] -0.014 | [19] -0.06 | [20] -0.009

ASAP1 isoform 2 (UniProt Q9ULH1)
inactive: [1] -0.098 | [2] 0.057 | [3] -0.118 | [4] -0.054 | [5] -0.096 | [6] -0.06 | [7] 0.029 | [8] 0.015 | [9] -0.004 | [10] 0.041 | [11] 0.055 | [12] -0.012 | [13] -0.015 | [14] 0.022 | [15] -0.005 | [16] 0.095 | [17] 0.016 | [18] -0.028 | [19] 0.023 | [20] 0.091

ATP6V1A (UniProt P38606)
inactive: [1] 0.002 | [2] 0.016 | [3] -0.029 | [4] 0.027 | [5] 0.031 | [6] -0.175 | [7] 0.014 | [8] 0.003 | [9] 0.008 | [10] 0.014 | [11] 0.001 | [12] 0.001 | [13] -0.021 | [14] -0.005 | [15] -0.038 | [16] -0.003 | [17] 0.01 | [18] 0.016 | [19] 0.015 | [20] 0.004

ATG3 (UniProt Q9NT62)
inactive: [1] 0.057 | [2] -0.006 | [3] -0.009 | [4] -0.035 | [5] -0.017 | [6] 0 | [7] 0.017 | [8] -0.028 | [9] -0.015 | [10] -0.078 | [11] -0.024 | [12] -0.016 | [13] -0.019 | [14] 0.034 | [15] -0.067 | [16] -0.008 | [17] -0.012 | [18] -0.029 | [19] 0.007 | [20] 0.027

ARPC2 (UniProt O15144)
inactive: [1] 0.051 | [2] -0.002 | [3] 0.024 | [4] -0.043 | [5] 0 | [6] 0.074 | [7] -0.018 | [8] -0.02 | [9] -0.01 | [10] 0.04 | [11] -0.035 | [12] 0.013 | [13] -0.009 | [14] 0 | [15] -0.069 | [16] 0.001 | [17] 0.004 | [18] -0.061 | [19] -0.032 | [20] 0.003

ARMC1 (UniProt Q9NVT9)
inactive: [1] 0.041 | [2] -0.027 | [3] -0.078 | [4] 0.054 | [5] -0.15 | [6] -0.139 | [7] 0.026 | [8] 0.012 | [9] 0.085 | [10] 0.048 | [11] 0.01 | [12] 0.021 | [13] 0.039 | [14] 0.017 | [15] -0.041 | [16] 0.043 | [17] 0.063 | [18] -0.028 | [19] 0.045 | [20] 0.041

ARSA (UniProt P15289)
inactive: [1] -0.046 | [2] 0.108 | [3] 0.015 | [4] -0.003 | [5] 0.057 | [6] 0.047 | [7] 0.084 | [8] -0.058 | [9] 0.016 | [10] 0.06 | [11] -0.044 | [12] -0.095 | [13] -0.136 | [14] 0.079 | [15] 0.029 | [16] -0.067 | [17] -0.119 | [18] -0.124 | [19] -0.027 | [20] 0.15

ATP6V0D1 (UniProt P61421)
inactive: [1] -0.035 | [2] -0.049 | [3] -0.016 | [4] -0.036 | [5] -0.022 | [6] -0.358 | [7] 0.001 | [8] 0.131 | [9] 0.068 | [10] 0.097 | [11] 0.02 | [12] -0.113 | [13] 0.022 | [14] -0.075 | [15] 0.109 | [16] -0.037 | [17] -0.033 | [18] 0.014 | [19] -0.034 | [20] 0.033

ATP5MF (UniProt P56134)
inactive: [1] 0.03 | [2] 0.011 | [3] -0.009 | [4] -0.024 | [5] 0.006 | [6] -0.012 | [7] 0.001 | [8] 0.022 | [9] -0.033 | [10] 0.023 | [11] -0.001 | [12] 0.026 | [13] 0.005 | [14] -0.035 | [15] -0.021 | [16] 0.015 | [17] -0.023 | [18] -0.038 | [19] -0.005 | [20] -0.016

ASMTL (UniProt O95671)
inactive: [1] 0.017 | [2] -0.022 | [3] -0.014 | [4] -0.118 | [5] -0.072 | [6] -0.213 | [7] 0.218 | [8] 0.008 | [9] 0.102 | [10] -0.155 | [11] 0 | [12] -0.117 | [13] 0.018 | [14] -0.018 | [15] 0.023 | [16] -0.014 | [17] 0.04 | [18] -0.23 | [19] 0.027 | [20] 0.047

ARL2 (UniProt P36404)
inactive: [1] 0.007 | [2] 0.002 | [3] -0.025 | [4] -0.033 | [5] -0.054 | [6] 0.048 | [7] -0.056 | [8] -0.013 | [9] -0.022 | [10] 0.04 | [11] 0.014 | [12] 0.031 | [13] 0.002 | [14] -0.001 | [15] -0.101 | [16] 0.016 | [17] -0.022 | [18] 0.015 | [19] 0.017 | [20] 0.013

ARV1 (UniProt Q9H2C2)
inactive: [1] 0.011 | [2] 0.013 | [3] -0.038 | [4] -0.111 | [5] 0.004 | [6] 0.022 | [7] 0.005 | [8] -0.018 | [9] -0.038 | [10] -0.033 | [11] 0.005 | [12] 0.019 | [13] 0.019 | [14] 0.044 | [15] -0.026 | [16] 0.003 | [17] 0.048 | [18] -0.102 | [19] 0.014 | [20] -0.025

ATP6AP2 (UniProt O75787)
inactive: [1] 0.049 | [2] -0.05 | [3] 0.027 | [4] 0.004 | [5] -0.034 | [6] -0.142 | [7] 0.031 | [8] 0.088 | [9] -0.024 | [10] 0.05 | [11] 0.037 | [12] -0.097 | [13] -0.012 | [14] -0.037 | [15] -0.063 | [16] 0.035 | [17] 0.003 | [18] 0.034 | [19] -0.031 | [20] 0.025

ASL (UniProt P04424)
inactive: [1] 0.031 | [2] -0.004 | [3] 0.01 | [4] -0.035 | [5] -0.017 | [6] -0.011 | [7] -0.051 | [8] 0.007 | [9] -0.027 | [10] 0.022 | [11] 0.01 | [12] -0.007 | [13] 0.02 | [14] -0.005 | [15] -0.039 | [16] 0.005 | [17] -0.009 | [18] -0.018 | [19] -0.009 | [20] 0.012

ARPC5 (UniProt O15511)
inactive: [1] 0.022 | [2] -0.001 | [3] 0.023 | [4] 0.002 | [5] 0.036 | [6] 0.141 | [7] -0.029 | [8] -0.036 | [9] -0.007 | [10] 0.071 | [11] -0.044 | [12] 0 | [13] 0.006 | [14] -0.011 | [15] -0.065 | [16] 0.01 | [17] -0.014 | [18] -0.057 | [19] 0.019 | [20] 0.026

ATL3 (UniProt Q6DD88)
inactive: [1] 0.041 | [2] 0.008 | [3] -0.007 | [4] -0.058 | [5] -0.056 | [6] -0.007 | [7] -0.008 | [8] 0.003 | [9] 0.001 | [10] 0.064 | [11] 0.023 | [12] -0.004 | [13] 0.021 | [14] 0.031 | [15] -0.023 | [16] 0.004 | [17] 0.079 | [18] -0.005 | [19] 0.019 | [20] -0.005
